# Reference: PMC7862700
# The chains behind the UniProt entries cited, without tags or fusion partners. Where a name states a change or a piece, a line headed by the entry shows the natural chain unless it says otherwise.
# UniProt Q01892: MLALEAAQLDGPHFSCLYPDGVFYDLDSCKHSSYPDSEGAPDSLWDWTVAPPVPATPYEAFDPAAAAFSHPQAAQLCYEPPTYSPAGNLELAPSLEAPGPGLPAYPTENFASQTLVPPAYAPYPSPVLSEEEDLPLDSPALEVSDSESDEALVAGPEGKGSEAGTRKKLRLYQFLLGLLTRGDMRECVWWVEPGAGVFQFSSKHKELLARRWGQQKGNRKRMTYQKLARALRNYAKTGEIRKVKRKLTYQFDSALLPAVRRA
# UniProt P41161: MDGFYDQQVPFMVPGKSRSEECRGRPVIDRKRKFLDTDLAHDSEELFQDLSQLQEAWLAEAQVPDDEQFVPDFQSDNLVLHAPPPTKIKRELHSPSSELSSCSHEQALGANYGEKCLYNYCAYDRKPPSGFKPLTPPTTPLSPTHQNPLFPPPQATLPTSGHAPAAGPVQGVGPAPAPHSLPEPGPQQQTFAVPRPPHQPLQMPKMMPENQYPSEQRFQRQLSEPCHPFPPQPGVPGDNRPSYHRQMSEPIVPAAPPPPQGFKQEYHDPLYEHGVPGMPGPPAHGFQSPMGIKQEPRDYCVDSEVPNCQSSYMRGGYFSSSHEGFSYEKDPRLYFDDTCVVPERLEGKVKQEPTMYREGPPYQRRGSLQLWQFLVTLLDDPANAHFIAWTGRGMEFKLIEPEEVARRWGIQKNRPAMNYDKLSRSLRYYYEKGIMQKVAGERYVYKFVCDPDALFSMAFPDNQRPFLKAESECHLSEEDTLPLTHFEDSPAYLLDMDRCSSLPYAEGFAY
# UniProt Q99607: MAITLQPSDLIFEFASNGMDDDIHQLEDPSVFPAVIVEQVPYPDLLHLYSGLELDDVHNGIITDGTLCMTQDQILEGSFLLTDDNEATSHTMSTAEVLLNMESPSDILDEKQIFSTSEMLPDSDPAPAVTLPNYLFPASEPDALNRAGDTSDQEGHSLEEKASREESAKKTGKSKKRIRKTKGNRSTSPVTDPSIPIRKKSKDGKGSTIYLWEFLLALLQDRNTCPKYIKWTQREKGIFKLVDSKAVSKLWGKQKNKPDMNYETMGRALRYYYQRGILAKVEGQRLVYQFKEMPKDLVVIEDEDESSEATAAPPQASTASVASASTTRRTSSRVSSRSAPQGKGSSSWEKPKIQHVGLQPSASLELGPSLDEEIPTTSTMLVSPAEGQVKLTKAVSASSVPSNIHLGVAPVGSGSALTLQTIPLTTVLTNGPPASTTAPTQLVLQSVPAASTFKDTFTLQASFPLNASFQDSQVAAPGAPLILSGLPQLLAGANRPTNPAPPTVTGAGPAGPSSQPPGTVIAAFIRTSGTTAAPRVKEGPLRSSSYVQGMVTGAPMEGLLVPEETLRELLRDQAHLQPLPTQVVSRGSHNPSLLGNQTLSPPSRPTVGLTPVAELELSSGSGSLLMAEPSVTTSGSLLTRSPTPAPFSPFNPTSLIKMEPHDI
# The entries are a selection whose mix differs from that of the whole data set. At the low end of the ranking the order means little.
# What was measured:
# Assay in all cases: DAPPL (digital affinity profiling via proximity ligation, sequencing)
# Details in all cases: 10 mM Tris-HCl pH 7.5, 50 mM NaCl, 1 mM DTT, 4% glycerol, room temperature, 30 min; GST-TFs on glutathione beads, 16-mer random dsDNA library, 0.1% …; high values mean tight binding; double strand, one strand shown; scale: fold enrichment (6-mer frequency, TF over GST control)
# [1] = target: T1, FLI1 (UniProt Q01543)
# T1 sequence: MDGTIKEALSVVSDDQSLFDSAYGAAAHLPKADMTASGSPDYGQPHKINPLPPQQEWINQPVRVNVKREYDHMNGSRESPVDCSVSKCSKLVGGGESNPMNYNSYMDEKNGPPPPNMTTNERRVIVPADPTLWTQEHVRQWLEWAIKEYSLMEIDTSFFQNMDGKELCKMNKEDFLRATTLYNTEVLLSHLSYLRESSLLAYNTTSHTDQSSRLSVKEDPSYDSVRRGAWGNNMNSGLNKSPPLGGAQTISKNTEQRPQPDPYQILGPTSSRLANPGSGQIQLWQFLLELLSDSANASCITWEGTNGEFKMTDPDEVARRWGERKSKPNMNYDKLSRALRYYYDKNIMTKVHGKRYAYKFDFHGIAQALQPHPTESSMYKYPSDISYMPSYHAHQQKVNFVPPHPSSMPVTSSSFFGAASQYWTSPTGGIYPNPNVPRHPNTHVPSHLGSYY
# [2] = target: T2, EHF (UniProt Q9NZC4)
# T2 sequence: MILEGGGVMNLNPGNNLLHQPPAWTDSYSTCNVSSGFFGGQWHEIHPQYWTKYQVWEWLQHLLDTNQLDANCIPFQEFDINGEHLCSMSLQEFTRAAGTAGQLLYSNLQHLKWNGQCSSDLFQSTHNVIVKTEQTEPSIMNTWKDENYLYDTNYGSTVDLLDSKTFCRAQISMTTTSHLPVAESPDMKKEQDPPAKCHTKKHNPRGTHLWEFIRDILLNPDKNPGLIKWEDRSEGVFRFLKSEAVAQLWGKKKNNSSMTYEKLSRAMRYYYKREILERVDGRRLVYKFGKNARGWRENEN
# [3] = target: SPIB (UniProt Q01892)
# [4] = target: ETV5 (UniProt P41161)
# [5] = target: ELF4 (UniProt Q99607)
# [6] = target: T3, ETV2 (UniProt O00321)
# T3 sequence: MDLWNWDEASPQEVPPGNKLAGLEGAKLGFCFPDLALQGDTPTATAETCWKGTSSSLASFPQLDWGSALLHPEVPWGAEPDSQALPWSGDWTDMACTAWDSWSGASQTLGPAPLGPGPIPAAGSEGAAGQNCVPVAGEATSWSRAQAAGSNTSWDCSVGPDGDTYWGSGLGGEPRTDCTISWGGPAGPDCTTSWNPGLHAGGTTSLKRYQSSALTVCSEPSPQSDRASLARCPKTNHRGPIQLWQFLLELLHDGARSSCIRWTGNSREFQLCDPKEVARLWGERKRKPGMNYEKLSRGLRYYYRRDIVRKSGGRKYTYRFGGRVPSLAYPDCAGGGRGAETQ
# [7] = target: T4, ETV3L (UniProt Q6ZN32)
# T4 sequence: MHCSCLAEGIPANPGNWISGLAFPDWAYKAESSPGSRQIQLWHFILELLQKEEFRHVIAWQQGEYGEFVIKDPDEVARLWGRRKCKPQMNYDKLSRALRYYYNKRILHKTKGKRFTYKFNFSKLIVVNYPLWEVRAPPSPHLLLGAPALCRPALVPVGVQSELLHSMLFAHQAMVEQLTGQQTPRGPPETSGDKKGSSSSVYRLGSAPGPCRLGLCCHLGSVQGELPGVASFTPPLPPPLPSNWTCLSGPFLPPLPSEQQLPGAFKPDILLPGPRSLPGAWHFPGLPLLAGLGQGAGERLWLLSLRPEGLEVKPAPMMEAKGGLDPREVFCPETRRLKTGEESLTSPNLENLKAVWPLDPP
Sequence,binding signal [1],binding signal [2],binding signal [3],binding signal [4],binding signal [5],binding signal [6],binding signal [7]
AGGGGG,0.591,0.563,0.61,0.58,0.608,0.616,0.661
GAGAGT,0.359,0.369,0.327,0.377,0.361,0.384,0.355
GGGGCA,0.698,0.685,0.671,0.697,0.708,0.715,0.718
CATGAG,0.63,0.651,0.644,0.619,0.689,0.58,0.717
GAGGCG,0.444,0.367,0.411,0.381,0.382,0.403,0.389
GCGCAA,0.823,0.894,0.748,0.815,0.811,0.836,0.861
GACGTC,0.869,0.887,0.983,0.844,0.835,0.855,0.858
CGGGAT,0.662,0.626,0.664,0.624,0.623,0.651,0.676
TGTGAA,0.84,0.895,0.908,0.849,0.901,0.732,0.824
ATAGAG,0.874,0.934,0.828,0.863,0.813,0.791,0.94
GGCGGT,0.417,0.39,0.439,0.419,0.403,0.385,0.429
AGGCGA,0.532,0.501,0.552,0.516,0.545,0.498,0.524
GACTGT,0.44,0.404,0.454,0.437,0.427,0.437,0.438
CAGGTT,0.661,0.656,0.666,0.665,0.683,0.738,0.66
CGAGGA,0.626,0.669,0.6,0.657,0.637,0.573,0.626
GTGTCG,0.61,0.671,0.589,0.626,0.605,0.517,0.641
GTGCGG,0.718,0.68,0.604,0.715,0.673,0.672,0.681
TAGACC,0.835,0.829,0.82,0.865,0.859,0.95,0.853
CGGAGA,0.204,0.226,0.21,0.226,0.204,0.192,0.202
ACGTGA,0.285,0.289,0.251,0.263,0.253,0.258,0.291

Sequence,binding signal [1],binding signal [2],binding signal [3],binding signal [4],binding signal [5],binding signal [6],binding signal [7]
GGCCCG,0.758,0.725,0.684,0.709,0.831,0.754,0.67
GTTGTG,0.945,0.882,0.844,0.813,0.875,0.913,1.02
GCCGTT,0.805,0.867,0.795,0.738,0.846,0.813,0.746
CAGGGG,0.64,0.558,0.556,0.595,0.624,0.582,0.543
GGGATA,0.784,0.79,0.815,0.768,0.804,0.688,0.784
CGGAGT,0.339,0.33,0.333,0.312,0.305,0.368,0.362
AGTTGG,0.471,0.482,0.459,0.525,0.451,0.505,0.485
AGTAGA,0.795,0.805,0.776,0.77,0.787,0.772,0.826
CAAGGA,0.729,0.83,0.695,0.753,0.697,0.763,0.756
CCGAGT,0.912,0.912,0.897,0.916,0.95,0.981,0.949
CCTGAG,0.861,0.764,0.79,0.807,0.844,0.858,0.836
TGTGTC,0.733,0.743,0.818,0.768,0.698,0.879,0.731
ATCGTG,0.412,0.397,0.424,0.379,0.397,0.443,0.452
GGTGCT,0.907,0.952,0.833,0.942,0.88,0.911,0.867
GACAAT,0.883,0.872,0.858,0.909,0.905,0.915,0.949
GCGGGC,0.749,0.756,0.893,0.743,0.759,0.742,0.703
CAGACC,0.83,0.786,0.802,0.798,0.849,0.911,0.75
AGGTGC,0.682,0.632,0.673,0.644,0.683,0.775,0.692
AGCCGT,0.499,0.496,0.465,0.451,0.477,0.494,0.491
AGGGCA,0.783,0.848,0.807,0.827,0.784,0.898,0.832

# Part of the list above, reduced to binding signal [5] and binding signal [6].
Sequence,binding signal [5],binding signal [6]
GCCGTT,0.846,0.813
CGGAGT,0.305,0.368
TGTGTC,0.698,0.879
AGCCGT,0.477,0.494

# 2 records drawn at random from those above, as already listed:
Sequence,binding signal [1],binding signal [2],binding signal [3],binding signal [4],binding signal [5],binding signal [6],binding signal [7]
ATCGTG,0.412,0.397,0.424,0.379,0.397,0.443,0.452
CCTGAG,0.861,0.764,0.79,0.807,0.844,0.858,0.836

# More entries follow:

Sequence,binding signal [1],binding signal [2],binding signal [3],binding signal [4],binding signal [5],binding signal [6],binding signal [7]
GCAGAG,0.711,0.667,0.601,0.647,0.667,0.727,0.677
AGACAA,0.749,0.796,0.746,0.767,0.817,0.828,0.747
AGTCGG,0.148,0.146,0.148,0.129,0.122,0.139,0.142
TCGTGG,0.67,0.734,0.659,0.672,0.712,0.723,0.711
AACGGG,0.705,0.731,0.699,0.707,0.668,0.805,0.724
GTGGGG,0.561,0.566,0.603,0.559,0.606,0.444,0.622
GTCGAG,0.44,0.495,0.467,0.439,0.449,0.482,0.468
CGGGCA,0.71,0.698,0.813,0.733,0.74,0.763,0.646
AGGAGC,0.392,0.362,0.358,0.411,0.397,0.329,0.364
AGGGCG,0.576,0.551,0.566,0.546,0.569,0.642,0.537
TGGGGC,0.801,0.89,0.777,0.757,0.85,0.744,0.841
CGGCGT,0.816,0.897,0.798,0.797,0.775,0.967,0.863
GTCAAT,0.803,0.823,0.866,0.795,0.836,0.862,0.868
GAGCAT,0.74,0.758,0.676,0.774,0.755,0.845,0.761
GACGGG,0.416,0.417,0.419,0.443,0.429,0.423,0.432
AAGTGA,0.604,0.722,0.598,0.655,0.678,0.624,0.648
GTCAGA,0.63,0.588,0.598,0.584,0.669,0.555,0.637
GGTCAA,0.87,0.905,0.922,0.871,0.91,0.877,0.972
AAGGAG,0.343,0.373,0.337,0.359,0.32,0.296,0.341
ACGTGG,0.566,0.583,0.639,0.571,0.565,0.542,0.598
